# From US20100280101, “METHOD OF INHIBITING CANCER CELL PROLIFERATION, PROLIFERATION INHIBITOR AND SCREENING METHOD” (University of Occupational and Environmental Health Japan, published 2010)
# Tags and fusion partners may be left off the protein sequences shown.
# Biological target: T1, ZNF143 (endogenous, PC3 cells) (Homo sapiens) (UniProt P52747)
# T1 sequence (limits assumed): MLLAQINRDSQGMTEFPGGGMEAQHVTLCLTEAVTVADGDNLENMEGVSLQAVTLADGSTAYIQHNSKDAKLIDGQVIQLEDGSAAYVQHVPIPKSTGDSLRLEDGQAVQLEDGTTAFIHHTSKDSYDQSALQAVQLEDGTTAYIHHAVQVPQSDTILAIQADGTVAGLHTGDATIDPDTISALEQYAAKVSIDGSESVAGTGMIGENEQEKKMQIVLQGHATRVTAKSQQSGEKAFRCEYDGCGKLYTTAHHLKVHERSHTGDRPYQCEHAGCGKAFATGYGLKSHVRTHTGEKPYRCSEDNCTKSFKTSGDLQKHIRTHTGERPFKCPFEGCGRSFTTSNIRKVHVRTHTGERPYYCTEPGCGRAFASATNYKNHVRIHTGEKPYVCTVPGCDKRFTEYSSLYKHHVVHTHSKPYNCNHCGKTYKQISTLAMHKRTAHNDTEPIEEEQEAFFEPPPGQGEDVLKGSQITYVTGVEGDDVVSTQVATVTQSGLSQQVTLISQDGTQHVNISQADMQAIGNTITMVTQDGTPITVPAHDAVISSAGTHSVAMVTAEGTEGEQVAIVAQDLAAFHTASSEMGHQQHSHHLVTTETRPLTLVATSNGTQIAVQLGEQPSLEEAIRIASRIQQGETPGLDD
# Test: activity in cells
# Settings: luciferase reporter in PC3 reduced by ZNF143 siRNA, not by control siRNA; protein in cells; variant of CDC6 promoter site; only the site is given
sequence,measurement,value
ACTACGCCTCCCAGCGTGCTTTGCGACTACGCCTCCCAGCGTGCTTTGCG (double strand) [CDC6 site x2 tandem in pGL3],activity on this sequence,active
